From publication PMC7819943, “Rice protein-binding microarrays: a tool to detect cis-acting elements near promoter regions in rice”
Some of the results follow.

Protein sequences, listed by entry. Tags and fused reporters are not part of them.
UniProt Q0JBA9, entry or part of it: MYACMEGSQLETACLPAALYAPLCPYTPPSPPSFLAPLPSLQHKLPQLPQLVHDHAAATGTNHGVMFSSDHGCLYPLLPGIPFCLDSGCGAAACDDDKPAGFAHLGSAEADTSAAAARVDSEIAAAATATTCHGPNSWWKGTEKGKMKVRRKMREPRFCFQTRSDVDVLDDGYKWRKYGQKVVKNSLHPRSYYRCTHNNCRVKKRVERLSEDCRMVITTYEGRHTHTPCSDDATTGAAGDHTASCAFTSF

What follows are sequences tested against OsWRKY34 (Oryza sativa, UniProt Q0JBA9 1-250) (assay: protein-binding microarray (RPBM); PBS, 2% BSA, 51.3 ng/ul salmon testes DNA, 50 uM zinc acetate, 200 nM TF, 25 C, 1 h; high values mean tight binding). Conditions: protein: recombinant; tags: N-terminal polyhistidine and DsRed monomer fusion (pET32a); label: CyDye5-dUTP incorporated in the synthesized complementary strand; 3' TTTTT single-stranded linker to array surface; dsDNA, one strand shown.
Outline: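 Binding signal is reported as fluorescence intensity per feature (arbitrary units) from an Axon 4000B scanner. Incubation used 200 nM of each Ni–NTA-purified, N-terminally polyhistidine- and DsRed-fused transcription factor from E. coli BL21-CodonPlus on a double-stranded custom Agilent array for 1 h at 25 °C, with 50 µM zinc acetate in the buffer, followed by washing.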

Sequence | binding signal
ATCTGATTCCTGCGTTTTTCCTCTGGTCCAATCAAATGGTCGGAGTCACCTAGTGCAG | 10100 fluorescence intensity (a.u.)
AGGTGAATCGCGGCTGATTGATTTCATGCTTTGTTCCTCTCGGAGTCACCTAGTGCAG | 12500 fluorescence intensity (a.u.)
TACTCCAGTGCTACTTGGCCGCCGCCGCCGCCGCCGCCGGCGGAGTCACCTAGTGCAG | 9480 fluorescence intensity (a.u.)
TGATAAGTTGATGCTAAATCCTGCTATTCTTTGCTCACATCGGAGTCACCTAGTGCAG | 9300 fluorescence intensity (a.u.)
GCATTGTTTCCCATCGTGCAGTTTATTTGACCCCACTAAACGGAGTCACCTAGTGCAG | 10100 fluorescence intensity (a.u.)
GGATGCCGTCGAGTCGTTGTAGTTTGTGTTTGTCACGTCGCGGAGTCACCTAGTGCAG | 10200 fluorescence intensity (a.u.)
GCCGCCACCATCTCGCACCTCCGCCGGCCTGCTCGGTCCCCGGAGTCACCTAGTGCAG | 11600 fluorescence intensity (a.u.)
TCTTCTTTTGTTGTCTTCTGCTATCCAATCTCTTGTCAAACGGAGTCACCTAGTGCAG | 10500 fluorescence intensity (a.u.)
CACACGCGTTCCTATACGATTCCTATGTTTTTTTTATATTCGGAGTCACCTAGTGCAG | 9410 fluorescence intensity (a.u.)
TTTAATGGCTTCCTCACTAAACTGTCCACATTGAACACTCCGGAGTCACCTAGTGCAG | 10500 fluorescence intensity (a.u.)
GTCCTCGCCCACCACGCCGCCGACCCCAGCGCCGCCATCGCGGAGTCACCTAGTGCAG | 10100 fluorescence intensity (a.u.)
ACACATCACAAGCTAGCTGCTCTCTTTCCTTGCTTGTTTTCGGAGTCACCTAGTGCAG | 10600 fluorescence intensity (a.u.)
ATTTTTACCTCCACTCACTCTCTCGCTCTTTCTATCCTCTCGGAGTCACCTAGTGCAG | 11000 fluorescence intensity (a.u.)
GCACGGATCATTCATTCATTCTCTCCTCCTCCGTTCCTGACGGAGTCACCTAGTGCAG | 9580 fluorescence intensity (a.u.)
CTACTTTCACTCCCACCCACCCGACACAGCCGGAGCGCGCCGGAGTCACCTAGTGCAG | 8630 fluorescence intensity (a.u.)
GCCCATCACCGCCCTCACGGACGACACGTCGCCAGACAGCCGGAGTCACCTAGTGCAG | 9070 fluorescence intensity (a.u.)
AACGCCTCTCGAGTCTTACAGTGAGGTTGACCAAGCCTACCGGAGTCACCTAGTGCAG | 9190 fluorescence intensity (a.u.)
TACTTCCTTTGTCCCTAAATATTTGATGCCGTTGACTTTTCGGAGTCACCTAGTGCAG | 23900 fluorescence intensity (a.u.)
CCATAGTCTCATACTCTCACACTACCATCAACATCTGCCTCGGAGTCACCTAGTGCAG | 8120 fluorescence intensity (a.u.)
GCGCGAGTACCGAGTTTGACGATGCAGCGGACGGGGCGGGCGGAGTCACCTAGTGCAG | 8960 fluorescence intensity (a.u.)
TACTTCCCAACTTTTTCTTCAAACTTTCAACTTTTTTATCCGGAGTCACCTAGTGCAG | 9960 fluorescence intensity (a.u.)
CATCCCGGCATAGGCCTGTTTAGTCGATTGCGTTGTGTAACGGAGTCACCTAGTGCAG | 8470 fluorescence intensity (a.u.)
GAATTTACGCTTTCTGGTCAGACTTCTGTTGTCCCACTGACGGAGTCACCTAGTGCAG | 12100 fluorescence intensity (a.u.)
GGTTTCGTTCGCGAGGAGGAGAGATCTGGTTGGGGAGATGCGGAGTCACCTAGTGCAG | 9660 fluorescence intensity (a.u.)
TTTTCCTTCTTATGACTCTTAAATATATATTTTATTTCATCGGAGTCACCTAGTGCAG | 8740 fluorescence intensity (a.u.)
CCAGAACGGCCGGTCAACGGCACCGTTGACCGTATGAGGGCGGAGTCACCTAGTGCAG | 52400 fluorescence intensity (a.u.)
AAACTTCTAACTTTTCCGTCACATCGTTCCAATTTCAACCCGGAGTCACCTAGTGCAG | 8840 fluorescence intensity (a.u.)

Sequence | binding signal
TTTGCCATCATCATGCAGAAGGGGTCAATCATGCATAACCCGGAGTCACCTAGTGCAG | 9150 fluorescence intensity (a.u.)
GTGCTGCCTGTGTTTATATTAAGCTCTCTTCTTCTTCCTCCGGAGTCACCTAGTGCAG | 8310 fluorescence intensity (a.u.)
CCGCACGCGCTCCCTTCACCCACCTCGATCGAGCTCCATGCGGAGTCACCTAGTGCAG | 8590 fluorescence intensity (a.u.)
ATTCCCTATATCAAAATCGCACGGATGTTATCTCTTTCCACGGAGTCACCTAGTGCAG | 8610 fluorescence intensity (a.u.)
GTCTTTTGGCTTCATTGTTTGGCTTATTCGTGGAAATATTCGGAGTCACCTAGTGCAG | 11100 fluorescence intensity (a.u.)
TTTTACATTTGCCTCTGCAATTTTGGTTTCCTTATCGATTCGGAGTCACCTAGTGCAG | 9770 fluorescence intensity (a.u.)
CCACAACGGATAACACCTCACTTCCTCAACACTCAACACACGGAGTCACCTAGTGCAG | 8660 fluorescence intensity (a.u.)
CCGCAACTTCCTTTTGGCACTAAACTCGTCTTATCCGCATCGGAGTCACCTAGTGCAG | 9350 fluorescence intensity (a.u.)
CAAATTTAGCAGCCTTTCAGAGCTCAGAAGTTACCATTCCCGGAGTCACCTAGTGCAG | 8470 fluorescence intensity (a.u.)
GTTGTTTTATTGATAGGTATAGGTATGAATCGAATTATTACGGAGTCACCTAGTGCAG | 8390 fluorescence intensity (a.u.)
GGAAATATTTTTAGGTTAAGGGGTGTGAAGTGTACTCTCTCGGAGTCACCTAGTGCAG | 8870 fluorescence intensity (a.u.)
TTCTAAAATATGTGGGTTTTTTTGTTGCAAAAGAATATTTCGGAGTCACCTAGTGCAG | 9060 fluorescence intensity (a.u.)
TTCCTCTCTCTCTGCTGTCAACTCCGGCCGACTCCGCCATCGGAGTCACCTAGTGCAG | 8660 fluorescence intensity (a.u.)
GCGTCTTCTTGTATTGGTTTTGTTTTACCCTGATTGCGTGCGGAGTCACCTAGTGCAG | 11200 fluorescence intensity (a.u.)
CGGTCTGCACAGAATTTTTTTCCAAGTTTGTGTCCTTTCTCGGAGTCACCTAGTGCAG | 10100 fluorescence intensity (a.u.)
CCCACCTCTCTCTCTCTCTCTCCCCTGGTCTCTCGCTCTCCGGAGTCACCTAGTGCAG | 9180 fluorescence intensity (a.u.)
TTGTTCCTCCTGTCCTGTCCATAGCTCATGCAACACAAGCCGGAGTCACCTAGTGCAG | 9210 fluorescence intensity (a.u.)
CCTTTTTCTGTCGGTTAATTCGGCGACGTCTGATCCGCCACGGAGTCACCTAGTGCAG | 8970 fluorescence intensity (a.u.)
CGCCGCCATTTCCGCCTCTTCTTCTCTTAAACAAAAAGCCCGGAGTCACCTAGTGCAG | 10200 fluorescence intensity (a.u.)
TTCGAATCCCTTCGCTGATGCATTGTTTTTTCTATTTTGCCGGAGTCACCTAGTGCAG | 10000 fluorescence intensity (a.u.)
CATAGCCACACAATCATACTAGCATTATCTCCTCATCATTCGGAGTCACCTAGTGCAG | 9140 fluorescence intensity (a.u.)
CCTCTCGGGCGCCTCTCCTCTCCATCATTCCTCCCACTGCCGGAGTCACCTAGTGCAG | 9880 fluorescence intensity (a.u.)
ACGTTTTTCCTATTCCTATGATTTTACATTTCTTTGTTCCCGGAGTCACCTAGTGCAG | 8610 fluorescence intensity (a.u.)
CTCGGCCACCGCCGGGTTCGCCTCCAGTGCTCGCCGCCTCCGGAGTCACCTAGTGCAG | 9920 fluorescence intensity (a.u.)
ATATTCACAGAGTCCATGGTGTTTTGAATCTCTTCTTCTTCGGAGTCACCTAGTGCAG | 8200 fluorescence intensity (a.u.)
CTAGTCTTCCACTTTTCCGCAGCCAGTAAACGCGCCCGCGCGGAGTCACCTAGTGCAG | 8180 fluorescence intensity (a.u.)
GCTTTTTTGACCGGTCGCCTCCGTCGATATTTTCCCGCGCCGGAGTCACCTAGTGCAG | 13300 fluorescence intensity (a.u.)

Taken from above.
CGGTCTGCACAGAATTTTTTTCCAAGTTTGTGTCCTTTCTCGGAGTCACCTAGTGCAG – binding signal: 10100 fluorescence intensity (a.u.)
TTCCTCTCTCTCTGCTGTCAACTCCGGCCGACTCCGCCATCGGAGTCACCTAGTGCAG – binding signal: 8660 fluorescence intensity (a.u.)
CCGCACGCGCTCCCTTCACCCACCTCGATCGAGCTCCATGCGGAGTCACCTAGTGCAG – binding signal: 8590 fluorescence intensity (a.u.)
